Measured values reported in PMC9825045.
Results are given in words; binding and its absence hold for the method and conditions named. In cells and extracts the contact can be indirect. Binding can be weak; no strength is given. Tags and fused reporters may be left off the sequences shown.

Target: T1, PAQR4 (tagged, exogenous co-IP) (human) (UniProt Q8N4S7)
T1 sequence: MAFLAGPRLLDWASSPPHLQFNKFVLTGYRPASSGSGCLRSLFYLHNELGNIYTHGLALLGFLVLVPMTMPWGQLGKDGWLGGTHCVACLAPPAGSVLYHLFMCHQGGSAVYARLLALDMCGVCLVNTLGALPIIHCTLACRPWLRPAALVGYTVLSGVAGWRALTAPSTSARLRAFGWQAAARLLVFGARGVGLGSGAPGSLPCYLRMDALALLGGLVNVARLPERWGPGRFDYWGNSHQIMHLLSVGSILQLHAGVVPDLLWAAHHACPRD
Test: co-IP; exogenous co-IP in HEK293T cells; IP lysis buffer, antibody overnight at 4 °C, magnetic agarose beads, washes with 0.5 M NaCl, 20 mM Na2HPO4, pH 7.0; Western blot

AKT (exogenous co-IP)
binding: binds
